Data published in PubChem BioAssay AID330 (DTP/NCI, 2004).
The list shows only some results of the screen, not a fair sample: it gathers tests that were run many times, whatever their T/C, doses with no T/C, and many T/C values between a quarter and a half above the control. Further doses and runs are listed elsewhere. T/C: endpoint of the treated group in % of that of the vehicle group. Some doses have a count of surviving animals in place of a T/C: the source files T/C as zero there, which appears to mark a toxic dose or a test without result, not a measured value. Some survivor counts are full or nearly so, which does not show that the dose was tolerated: the source hardly ever lists a survival T/C far under the control, and the zero likely stands for such cases as well. Survivors were counted at the toxicity check, usually on the fifth day, unless a day is given; later deaths do not show. Schedule codes are those of the source, taken here to give the interval after Q, in days (D) or hours (H), and the number of doses after X. Some entries were tested several times; the values are given in rising order. For survival time, the PubChem record calls one and a half times the control and up active, and a quarter to a half above the control has no call in these data; cut-offs in other NCI protocols can differ. Additions like (4×) give the number of equal values in this list. Some T/C values carry the count of animals alive at the toxicity check (mostly the fifth day); without a count, all were alive then.

System: P388 leukemia ip, CD2F1 mice, survival T/C
Experiment: NCI In Vivo Anticancer Drug Screen. Data for tumor model P388 Leukemia (intraperitoneal) in CD2F1 (CDF1) mice
Settings: T/C endpoint: median survival time, higher T/C = longer survival
[1] = dose: 1.0 mg/kg/injection, schedule: Q01DX009 (ip), vehicle: other
[2] = dose: 2.0 mg/kg/injection, schedule: Q01DX009 (ip), vehicle: other
[3] = dose: 2.0 mg/kg/injection, schedule: Q01DX009 (ip), vehicle: water
[4] = dose: 200.0 mg/kg/injection, schedule: Q01DX005 (ip), vehicle: Klucel (hydroxypropylcellulose) (HPC)
[5] = dose: 120.0 mg/kg/injection, schedule: Q01DX005 (ip), vehicle: saline with Tween-80
[6] = dose: 240.0 mg/kg/injection, schedule: Q01DX005 (ip), vehicle: saline with Tween-80
[7] = dose: 50.0 mg/kg/injection, schedule: Q01DX009 (ip), vehicle: saline
[8] = dose: 100.0 mg/kg/injection, schedule: Q01DX009 (ip), vehicle: saline
[9] = dose: 200.0 mg/kg/injection, schedule: Q01DX009 (ip), vehicle: distilled water + Tween-80
[10] = dose: 400.0 mg/kg/injection, schedule: Q04DX003 (ip), vehicle: saline
[11] = dose: 50.0 mg/kg/injection, schedule: Q01DX009 (ip), vehicle: saline with Tween-80

In the case of `CC(C)CCCCCCCCCCCCC(=O)NCC(=O)NC1C(O)C(O)C(Nc2ncnc3nc[nH]c23)OC1C(O)CO` (stereo not given), the T/C (dose: 0.12 mg/kg/injection, schedule: Q01DX009 (ip), vehicle: other) is reported as 144 % of control, the T/C (dose: 0.12 mg/kg/injection, schedule: Q01DX009 (ip), vehicle: water) is reported as 128 % of control and the T/C (dose: 0.13 mg/kg/injection, schedule: Q01DX009 (ip), vehicle: distilled water + Tween-80) is reported as 141 % of control. The T/C (dose: 0.13 mg/kg/injection, schedule: Q01DX009 (ip), vehicle: distilled water + alcohol) was 135 % of control, the T/C (dose: 0.13 mg/kg/injection, schedule: Q01DX009 (ip), vehicle: other) was 120, 122, 133, 137, 141 % of control and the T/C (dose: 0.13 mg/kg/injection, schedule: Q01DX009 (ip), vehicle: saline with Tween-80) was 133 and 142 % of control. For the same compound, the T/C (dose: 0.13 mg/kg/injection, schedule: Q01DX009 (ip), vehicle: water) was 129, 130, 131, 132 (2×), 133, 134, 135, 136 (2×), 137, 138 % of control, the T/C (dose: 0.25 mg/kg/injection, schedule: Q01DX009 (ip), vehicle: Klucel (hydroxypropylcellulose) (HPC)) was 130 % of control and the T/C (dose: 0.25 mg/kg/injection, schedule: Q01DX009 (ip), vehicle: distilled water + Tween-80) was 142 % of control. For the same compound, the T/C (dose: 0.25 mg/kg/injection, schedule: Q01DX009 (ip), vehicle: other) was 128, 142, 144, 146, 151, 169 % of control, the T/C (dose: 0.25 mg/kg/injection, schedule: Q01DX009 (ip), vehicle: saline with Tween-80) was 141 % of control and the T/C (dose: 0.25 mg/kg/injection, schedule: Q01DX009 (ip), vehicle: water) was 133 (2×), 136, 137, 138, 140, 141 (2×), 142 (2×), 148, 154, 156 % of control. For the same compound, the T/C (dose: 0.5 mg/kg/injection, schedule: Q01DX009 (ip), vehicle: Klucel (hydroxypropylcellulose) (HPC)) was 138 % of control, the T/C (dose: 0.5 mg/kg/injection, schedule: Q01DX009 (ip), vehicle: distilled water + alcohol) was 147 % of control and the T/C (dose: 0.5 mg/kg/injection, schedule: Q01DX009 (ip), vehicle: other) was 139, 143, 154, 159 (2×), 179 % of control. The T/C (dose: 0.5 mg/kg/injection, schedule: Q01DX009 (ip), vehicle: saline with Tween-80) was 149 % of control, the T/C (dose: 0.5 mg/kg/injection, schedule: Q01DX009 (ip), vehicle: water) was 141, 143, 144, 148, 151, 153, 154, 157, 158, 159, 166, 168, 172 % of control and the T/C (dose: 1.0 mg/kg/injection, schedule: Q01DX009 (ip), vehicle: Klucel (hydroxypropylcellulose) (HPC)) was 141 % of control. The survivor count (dose: 1.0 mg/kg/injection, schedule: Q01DX009 (ip), vehicle: distilled water + Tween-80) was 6 of 6, the T/C [1] was 86, 90, 113, 116 % of control and the survivor count [1] was 6 of 6. The T/C (dose: 1.0 mg/kg/injection, schedule: Q01DX009 (ip), vehicle: water) was 93, 100, 101, 109, 113, 140, 145, 153, 157, 160, 161, 166, 176 % of control, the survivor count (dose: 2.0 mg/kg/injection, schedule: Q01DX009 (ip), vehicle: distilled water + Tween-80) was 6 of 6 and the T/C (dose: 2.0 mg/kg/injection, schedule: Q01DX009 (ip), vehicle: distilled water + alcohol) was 125 % of control. For the same compound, the T/C [2] was 88 % of control, the survivor count [2] was 5 of 6 and 6 of 6 and the survivor count (dose: 2.0 mg/kg/injection, schedule: Q01DX009 (ip), vehicle: saline with Tween-80) was 6 of 6. The T/C [3] was 89, 90, 96, 99, 107, 175 % of control, the survivor count [3] was 6 of 6 and the survivor count (dose: 4.0 mg/kg/injection, schedule: Q01DX009 (ip), vehicle: saline with Tween-80) was 6 of 6. The survivor count (dose: 4.0 mg/kg/injection, schedule: Q01DX009 (ip), vehicle: water) was 6 of 6.

`C=C(Cl)C(=NC(C)(C)C)Nc1ccccc1` was tested, and the survivor count [4] was 3 of 6.

`CCOC(=O)NNS(=O)(=O)CCC(N)C(=O)O` (stereo not given) was tested, and the T/C (dose: 100.0 mg/kg/injection, schedule: Q01DX009 (ip), vehicle: water) was 130 % of control.

With `O=C(c1ccccc1)C1CCCN(CCc2ccccc2)C1` (stereo not given) the survivor count (dose: 200.0 mg/kg/injection, schedule: Q01DX005 (ip), vehicle: saline with Tween-80) was 0 of 6.

With `NC(=O)N1C(=O)C=CC1=O` the survivor count [4] was 1 of 5.

With `N#Cc1cn(C2OC(CO)C(O)C2O)c2ncnc(Cl)c12` (stereo not given) the T/C (dose: 15.0 mg/kg/injection, schedule: Q01DX005 (ip), vehicle: saline with Tween-80) was 147 % of control, the T/C (dose: 30.0 mg/kg/injection, schedule: Q01DX005 (ip), vehicle: saline with Tween-80) was 147 % of control and the T/C [5] was 149 % of control. The survivor count [6] was 6 of 6.

With `O=C1Nc2ccccc2C(O)(c2ccccc2)N1Cc1ccccc1` (stereo not given) the survivor count [7] was 6 of 6 and the survivor count [8] was 6 of 6.

In the case of `Cc1c(COC(=O)NC2CCCCC2)c(COC(=O)NC2CCCCC2)c2c3ccccc3c3ccccc3n12`, the T/C [9] is reported as 128 % of control and the T/C (dose: 400.0 mg/kg/injection, schedule: Q01DX009 (ip), vehicle: distilled water + Tween-80) is reported as 132 % of control.

With `O=C(CCN1CC1)Nc1cccc(NC(=O)CCN2CC2)c1` the T/C (dose: 10.0 mg/kg/injection, schedule: Q01DX009 (ip), vehicle: Klucel (hydroxypropylcellulose) (HPC)) was 174, 229, 240, 243 % of control, the survivor count (dose: 20.0 mg/kg/injection, schedule: Q01DX009 (ip), vehicle: Klucel (hydroxypropylcellulose) (HPC)) was 4 of 6 and 5 of 6 and the survivor count (dose: 40.0 mg/kg/injection, schedule: Q01DX009 (ip), vehicle: Klucel (hydroxypropylcellulose) (HPC)) was 2 of 6 and 4 of 6. For the same compound, the survivor count (dose: 80.0 mg/kg/injection, schedule: Q01DX009 (ip), vehicle: Klucel (hydroxypropylcellulose) (HPC)) was 0 of 6.

With `O=C(Nc1ccc(C2=NCCN2)cc1)c1ccc(C(=O)Nc2ccc(C3=NCCN3)cc2)c(F)c1` the T/C (dose: 50.0 mg/kg/injection, schedule: Q04DX003 (ip), vehicle: saline with Tween-80) was 136 % of control.

In the case of `CCNC(=O)C(CCO)NC(=O)OCc1ccccc1` (stereo not given), the T/C (dose: 100.0 mg/kg/injection, schedule: Q01DX009 (ip), vehicle: distilled water + Tween-80) is reported as 127 % of control and the T/C [9] is reported as 138 % of control.

In the case of `O=[N+]([O-])C(Br)(CO)CO`, the survivor count (dose: 25.0 mg/kg/injection, schedule: Q01DX009 (ip), vehicle: saline) is reported as 3 of 6, the survivor count [7] is reported as 0 of 6 and the survivor count [8] is reported as 0 of 6.

For `Cc1ccc2c(c1)C(=S)NC(=O)C2`, the survivor count (dose: 25.0 mg/kg/injection, schedule: Q01DX009 (ip), vehicle: distilled water + Tween-80) was 4 of 4.

With `COC1N(C2CC(O)C(CO)O2)C(=O)NC(=O)C1(F)Br` (stereo not given) the T/C (dose: 266.0 mg/kg/injection, schedule: Q04DX003 (ip), vehicle: saline) was 127 % of control and the T/C [10] was 136 % of control.

`OC1(c2ccccc2)CSC2=Nc3ccccc3C3CCN1N23` (stereo not given) was tested, and the T/C (dose: 25.0 mg/kg/injection, schedule: Q01DX009 (ip), vehicle: saline with Tween-80) was 86, 105, 111, 112 % of control, the T/C [11] was 94, 99, 105, 107 % of control and the survivor count [11] was 6 of 6. For the same compound, the survivor count (dose: 100.0 mg/kg/injection, schedule: Q01DX009 (ip), vehicle: saline with Tween-80) was 6 of 6.

In the case of `COc1cccc(Oc2cccc[n+]2CC(C)=O)c1`, the survivor count (dose: 100.0 mg/kg/injection, schedule: Q01DX005 (ip), vehicle: saline) is reported as 1 of 5.

In the case of `O=C(Cc1nc2ccc(Cl)cc2nc1CC(=O)c1ccccc1)c1ccccc1`, the survivor count [5] is reported as 1 of 6 and the survivor count [6] is reported as 2 of 6.

With `CC(Cc1ccc(O)cc1)NCC(O)c1ccc(O)c(O)c1` (stereo not given) the T/C (dose: 200.0 mg/kg/injection, schedule: Q01DX009 (ip), vehicle: saline with Tween-80) was 127 % of control [5 of 6 alive] and the T/C (dose: 400.0 mg/kg/injection, schedule: Q01DX009 (ip), vehicle: saline with Tween-80) was 127 % of control [5 of 6 alive].

With `C[CH2][Sn]1([CH2]C)[O]C2C(OC)OC3COC(c4ccccc4)OC3C2[O]1` (stereo not given) the T/C (dose: 12.5 mg/kg/injection, schedule: Q04DX003 (ip), vehicle: saline) was 128 % of control, the survivor count (dose: 25.0 mg/kg/injection, schedule: Q04DX003 (ip), vehicle: saline) was 1 of 6 and the survivor count (dose: 100.0 mg/kg/injection, schedule: Q04DX003 (ip), vehicle: saline) was 0 of 6. For the same compound, the survivor count (dose: 200.0 mg/kg/injection, schedule: Q04DX003 (ip), vehicle: saline) was 0 of 6 and the survivor count [10] was 0 of 6.
